Reference: PubChem BioAssay AID1259315 (Drosophila RNAi Screening Center, 2017)
Aim: 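Fly genes whose loss alters cell survival under toxic zinc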 (primary screen). Cells: Drosophila S2R+ cells. Knock-down reagent: long dsRNA against Drosophila genes. Duration: 5 days (4 days knock-down, then 1 day with zinc). Treatment: zinc chloride added to 15 mM final for 1 day. Measured: 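Luminescent measure of total cellular ATP as a survival proxy, read after 4 days of knock-down plus 1 day in 15 mM zinc chloride; z-score averaged across two replicate plates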. Scale: mean ATP z-score: higher = more ATP, more cells surviving zinc. Active means: 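Hit when the mean ATP z-score exceeds 1.5 or falls below -1.5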.
The whole screen tested 418 reagents; below is an unselected part. 17 of them (4.1%) were called active. 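z-scores average two replicate plates; all hits raised ATP and none lowered it.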 Entries without a mark were called inactive. No sequences are given here. The record does not give: the amount of reagent.

With Vha100-5 [DRSC26439], how do the results read?
mean ATP z-score: -0.285

With Vha100-5 [DRSC30649], how do the results read?
mean ATP z-score: -0.324

How did the screen score Vha100-5 [DRSC30650]?
mean ATP z-score: -0.168

With Tsp39D [DRSC03099], what was measured?
mean ATP z-score: -0.138

For Tsp39D [DRSC40050], what does the deposit list?
mean ATP z-score: -0.385

For Rgk1 [DRSC05785], what was measured?
mean ATP z-score: 0.0466

Which result is listed for Rgk1 [DRSC23535]?
mean ATP z-score: -0.348

With Rgk1 [DRSC37293], what does the deposit list?
mean ATP z-score: -0.265

With Acox57D-p [DRSC04560], what does the deposit list?
mean ATP z-score: -0.151

What is on record for Acox57D-p [DRSC39339]?
mean ATP z-score: -0.502

For Gbp2 [DRSC06069], what does the deposit list?
mean ATP z-score: -0.0918

With AP-1gamma [DRSC18433], how do the results read?
mean ATP z-score: 0.0213

What is on record for AP-1gamma [DRSC36403]?
mean ATP z-score: -0.427

For ClC-a [DRSC14947], what does the deposit list?
mean ATP z-score: 1.01

For ClC-a [DRSC14948], what does the deposit list?
mean ATP z-score: 0.51

With ClC-a [DRSC16142], how do the results read?
mean ATP z-score: 0.968

What did the screen give for Daao2 [DRSC02135]?
mean ATP z-score: 0.0217

For VhaM9.7-c [DRSC08204], how do the results read?
mean ATP z-score: -0.091

With VhaM9.7-c [DRSC30083], what was measured?
mean ATP z-score: -0.262

Which result is listed for CG12355 [DRSC09381]?
mean ATP z-score: -0.349

With CG12355 [DRSC09883], what does the deposit list?
mean ATP z-score: -0.0753

For CG12672 [DRSC24282], what does the deposit list?
mean ATP z-score: -0.247

How did the screen score Hacl [DRSC06061]?
mean ATP z-score: -0.225

What did the screen give for Hacl [DRSC37107]?
mean ATP z-score: -0.186

With Pex11c [DRSC14677], how do the results read?
mean ATP z-score: -0.132

For Bace [DRSC02197], how do the results read?
mean ATP z-score: -0.28

For Bace [DRSC28723], what does the deposit list?
mean ATP z-score: -0.292

How did the screen score Bace [DRSC33860]?
mean ATP z-score: -0.0927

What did the screen give for Vps13B [DRSC15060]?
mean ATP z-score: -0.307

What is on record for Vps13B [DRSC34131]?
mean ATP z-score: -0.21

What is on record for CG8646 [DRSC07230]?
mean ATP z-score: -0.371

How did the screen score VhaSFD [DRSC03471]?
mean ATP z-score: 0.537

For VhaSFD [DRSC32234], how do the results read?
mean ATP z-score: 0.086

How did the screen score VhaSFD [DRSC32235]?
mean ATP z-score: 0.235

What did the screen give for Npc2a [DRSC00698]?
mean ATP z-score: -0.12

With Vha100-4 [DRSC16282], how do the results read?
mean ATP z-score: -0.328

With Vha100-4 [DRSC26139], what was measured?
mean ATP z-score: -0.123

For VhaAC45 [DRSC07058], how do the results read?
mean ATP z-score: 0.16

For VhaAC45 [DRSC32085], what does the deposit list?
mean ATP z-score: 0.0427

With VhaAC45 [DRSC39906], how do the results read?
mean ATP z-score: 0.0948

Which result is listed for ZnT63C [DRSC08519]?
mean ATP z-score: -0.201

What is on record for ZnT63C [DRSC23528]?
mean ATP z-score: -0.386

With ZnT63C [DRSC37698], how do the results read?
mean ATP z-score: -0.425

With CG9886 [DRSC00732], what was measured?
mean ATP z-score: -0.214

For CG9886 [DRSC40409], how do the results read?
mean ATP z-score: -0.336

How did the screen score CG9886 [DRSC41580]?
mean ATP z-score: -0.171

For Pex5 [DRSC18552], what was measured?
mean ATP z-score: -0.173

What did the screen give for Pex5 [DRSC26136]?
mean ATP z-score: -0.384

Which result is listed for Pex5 [DRSC34058]?
mean ATP z-score: 0.202

For Ppt1 [DRSC17806], what does the deposit list?
mean ATP z-score: -0.27

With Pex3 [DRSC10731], what was measured?
mean ATP z-score: -0.321

For Pex3 [DRSC40003], what does the deposit list?
mean ATP z-score: -0.392

For Idh [DRSC10779], how do the results read?
mean ATP z-score: -0.216

How did the screen score Idh [DRSC34441]?
mean ATP z-score: -0.166

What did the screen give for Idh [DRSC34442]?
mean ATP z-score: 0.0848

What is on record for Mpcp2 [DRSC11226]?
mean ATP z-score: -0.00414

What is on record for Mpcp2 [DRSC41005]?
mean ATP z-score: -0.119

With ACOX1 [DRSC05941], what does the deposit list?
mean ATP z-score: 0.307

How did the screen score ACOX1 [DRSC24604]?
mean ATP z-score: -0.106

What did the screen give for CG14767 [DRSC06500]?
mean ATP z-score: 0.13

What is on record for CG14767 [DRSC28418]?
mean ATP z-score: -0.157
